According to PubChem BioAssay AID1117319 (Southern Research Institute, 2015):
Out of some 260,000 compounds screened, about 1,500 (0.58%) were called active. This list was built around the results that the source calls inconclusive (neither active nor inactive); the mix of calls is not that of the screen.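 How the source made its calls: active means inhibition above a set limit at one or more doses, reproduced on every date tested; inconclusive means results disagree between test dates, or hit never tested in dose response; inactive means the rest.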

Protein sequences, listed by entry. Tags and fused reporters are not part of them. Lines headed by an entry give the natural chain unless they say otherwise; changes in a name come on top.
UniProt P69720: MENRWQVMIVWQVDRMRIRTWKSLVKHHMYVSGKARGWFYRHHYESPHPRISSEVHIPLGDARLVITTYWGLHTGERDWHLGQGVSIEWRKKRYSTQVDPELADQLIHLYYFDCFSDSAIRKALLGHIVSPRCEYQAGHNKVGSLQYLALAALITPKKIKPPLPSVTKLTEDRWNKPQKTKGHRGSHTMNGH
UniProt P69721: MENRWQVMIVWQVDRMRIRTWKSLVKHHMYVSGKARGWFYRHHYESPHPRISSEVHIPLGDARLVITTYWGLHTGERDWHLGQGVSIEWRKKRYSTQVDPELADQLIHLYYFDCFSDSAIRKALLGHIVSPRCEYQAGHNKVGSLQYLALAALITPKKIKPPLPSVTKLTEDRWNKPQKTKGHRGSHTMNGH
UniProt P69722: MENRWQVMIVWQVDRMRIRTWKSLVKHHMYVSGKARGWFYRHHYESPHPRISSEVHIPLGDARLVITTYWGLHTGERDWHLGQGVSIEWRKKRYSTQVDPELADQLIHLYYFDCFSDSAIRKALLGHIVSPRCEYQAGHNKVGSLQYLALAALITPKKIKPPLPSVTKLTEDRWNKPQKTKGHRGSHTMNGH
UniProt P69723: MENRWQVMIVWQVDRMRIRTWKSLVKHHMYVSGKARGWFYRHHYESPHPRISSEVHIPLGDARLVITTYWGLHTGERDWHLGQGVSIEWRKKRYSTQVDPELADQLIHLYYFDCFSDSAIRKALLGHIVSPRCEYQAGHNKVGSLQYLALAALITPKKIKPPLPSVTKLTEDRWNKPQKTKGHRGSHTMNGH
UniProt Q9HC16: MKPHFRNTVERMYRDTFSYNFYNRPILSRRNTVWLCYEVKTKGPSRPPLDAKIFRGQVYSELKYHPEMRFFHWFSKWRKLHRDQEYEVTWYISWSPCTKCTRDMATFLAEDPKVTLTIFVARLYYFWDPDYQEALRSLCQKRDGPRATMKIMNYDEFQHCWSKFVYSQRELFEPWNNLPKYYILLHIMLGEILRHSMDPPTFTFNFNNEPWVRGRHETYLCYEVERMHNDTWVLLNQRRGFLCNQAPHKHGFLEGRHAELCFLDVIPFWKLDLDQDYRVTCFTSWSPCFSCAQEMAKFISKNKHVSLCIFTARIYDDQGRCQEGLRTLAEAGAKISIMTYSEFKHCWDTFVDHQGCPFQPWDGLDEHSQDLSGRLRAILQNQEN

The molecules below were run against Virion infectivity factor (Human immunodeficiency virus type 1 group M subtype B (isolate BH10)) + Virion infectivity factor (Human immunodeficiency virus type 1 group M subtype B (isolate BRU/LAI)) + Virion infectivity factor (Human immunodeficiency virus type 1 group M subtype B (isolate PCV12)) + Virion infectivity factor (Human immunodeficiency virus type 1 group M subtype B (isolate HXB2)) + DNA dC->dU-editing enzyme APOBEC-3G (Homo sapiens) (UniProt P69720+P69721+P69722+P69723+Q9HC16) (assay: inhibitors of Vif binding to APOBEC3G peptide, primary screen, biochemical, TR-FRET, GST-Vif 1-94, biotin-A3G peptide, dose response retest (AID 1117319;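 further: Vif residues 1-94 fused to GST binding biotinylated APOBEC3G peptide 110-148; 0% = full assay without inhibitor and 100% = GST in place of GST-Vif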)). Conditions: active compounds read high.

| Compound | inhibition |
| --- | --- |
| COc1ccccc1N=C(C)C1=C(O)COC1=O | inconclusive: 65.5% |
| O=C(Nc1nnc(-c2ccccc2Cl)o1)c1cccnc1 | inconclusive: 41.8% |
| COc1ccc(CCNC(=O)CN(c2ccc(OC)c(OC)c2)S(C)(=O)=O)cc1OC | inconclusive: 61.2% |
| O=C1C(Cl)=C(N2CCOCC2)C(=O)N1c1cccc(Cl)c1 | inconclusive: 41.7% |
| CCOc1cc(N2CCOCC2)c(OCC)cc1NC(=O)CSc1n[nH]c(N)n1 | inconclusive: 37.7% |
| CSc1nc(N2CCOCC2)c2c3c(sc2n1)CCCC3 | inactive: 2.91% |
| CCCCCCCCC(=O)N/N=C(\C)c1cccnc1 | inconclusive: 38.4% |
| COc1ccc(/C=C(/C#N)c2cccnc2)cc1OC | inconclusive: 40.5% |
| O=C(/C=C/c1cccc([N+](=O)[O-])c1)N(c1ccccn1)c1ccccn1 | inconclusive: 43.9% |
| Cc1csc(NC(=O)c2cc3c(C)nn(Cc4ccccc4Cl)c3s2)n1 | inconclusive: 44.2% |
| O=C(NCc1ccco1)c1ccc2c(=O)n(CC3CCCO3)c(=S)[nH]c2c1 (stereo not drawn) | inconclusive: 33.4% |
| COC(=O)CCCC1=CC2=CC(=O)C(C)(OC(=O)CCc3ccccc3)C(=O)C2=CO1 (stereo not drawn) | inconclusive: 60.1% |
| C/C(=N/NC(=O)CN1CCN(S(=O)(=O)c2ccc(C)cc2)CC1)c1cccc(O)c1 | inconclusive: 44.1% |
| CCOC(=O)C1=C(CS(=O)(=O)c2ccc(Cl)cc2)NC(=O)NC1c1ccc(O)c(OC)c1 (stereo not drawn) | inconclusive: 35.1% |
| CCOC(=O)N1CCN(S(=O)(=O)c2ccc3c(c2)SCC(=O)N3)CC1 | inconclusive: 20.3% |
| Cc1cccc(N2CCN(c3ccc(N4C(=O)CCCC4=O)cc3[N+](=O)[O-])CC2)c1C | inconclusive: 53.2% |
| Cc1ccc2c(c1)N(Cc1ccncc1)C(=O)C(C)O2 (stereo not drawn) | inconclusive: 54.8% |
| CC(C)c1ccc(-c2nc(N3CCCCC3)[nH]c(=O)c2C#N)cc1 | inactive: -2.18% |
| CCOc1cc(S(=O)(=O)N(CC)CC)ccc1Cl | inconclusive: 45.9% |
| COCC(C)OC(=O)c1c(N)n(-c2ccc(OC)c(OC)c2)c2nc3ccccc3nc12 (stereo not drawn) | inactive: 7.95% |
| O=C1CC(Nc2ccc(N3CCOCC3)cc2)C(=O)N1CCc1ccccc1 (stereo not drawn) | inconclusive: 79.2% |
| C/C=C(/C)C(=O)Nc1cccc(C2=NOC3(C2)C[C@@H](C(N)=O)N(C(=O)/C=C/CC)C3)c1 (stereo partly drawn) | inactive: 13.8% |

| Compound | inhibition |
| --- | --- |
| CC(=O)Nc1ccc(S(=O)(=O)Nc2ccc(N3CCOCC3)c(F)c2)cc1 | inconclusive: 20.2% |
| Cc1c(N=Cc2c(O)n(C)c(=O)c3ccccc23)c(=O)n(-c2ccccc2)n1C | inconclusive: 33.8% |
| CS(=O)(=O)Nc1ccccc1NS(C)(=O)=O | inconclusive: 34.7% |
| COc1cc(C)nc(N2CCCC(C(=O)Nc3ccccc3Br)C2)n1 (stereo not drawn) | inconclusive: 38.9% |
| O=C(c1ccccc1)c1ccc(Oc2ncccn2)cc1 | inactive: -0.66% |
| COCCOC(=O)C1=C(C)NC(=O)NC1c1ccco1 (stereo not drawn) | inconclusive: 42.1% |
| COc1cc(/C=N/NC(=O)/C(=C\c2ccc([N+](=O)[O-])cc2)NC(=O)c2ccccc2)cc(OC)c1O | inconclusive: 35.5% |
| COc1ccc(CN(C(=O)c2ccccc2OC)C2CCS(=O)(=O)C2)cc1 (stereo not drawn) | inconclusive: 55.4% |
| Cc1nnc(SCCn2c(Br)nc3c2c(=O)[nH]c(=O)n3C)s1 | inconclusive: 40.4% |
| COC(=O)c1cccc(C23CC4(C2)[C@H](CN(Cc2ccc(-c5ccccc5)cc2)[C@@H]4c2ccccc2)C3c2ccccc2)c1 (stereo partly drawn) | inconclusive: 43% |
| COc1ccc(C(=O)NC(=S)NNC(=O)c2cnccn2)cc1 | inconclusive: 49.3% |
| CC(=O)C1=C(O)C(=O)OC1c1ccc(C)cc1 (stereo not drawn) | inconclusive: 33.2% |
| O=[N+]([O-])c1ccc(O)c(NC(=S)Nc2ccccc2)c1 | inconclusive: 35.3% |
| CCCC(O)(CCC)C(=O)NN(C(=O)CCl)c1ccccc1 | inconclusive: 36.2% |
| COC(=O)CCCC1=CC2=C(c3ccccc3)C(=O)C(C)(OC(=O)C3CCCC3)C(=O)C2=CN1CC1CC1 (stereo not drawn) | inconclusive: 49.7% |
| O=C1NNC(c2ccccc2)=N/C1=C\c1ccco1 | inconclusive: 55.1% |
| C/C(=N/NC(=O)c1ccncc1)C1=C(O)CC(C)(C)CC1=O | inconclusive: 40.1% |
| O=C(CCCCCn1c(=O)[nH]c2ccccc2c1=O)NCCCN1CCN(c2ccccc2F)CC1 | inconclusive: 38% |
| CCCN(CCC)C(=O)CC(c1ccccc1)c1cc(Br)ccc1O (stereo not drawn) | inconclusive: 42.4% |
| O=C(/C=C/c1ccco1)NC(=S)Nc1ccccn1 | inconclusive: 41.8% |
| O=C(O)c1ccccc1C(=O)Nc1ccc(-n2nccc2C(F)(F)F)cc1 | inactive: -1.72% |
| O=c1oc2ccccc2cc1-c1csc(Cc2nc(-c3ccc(Br)cc3)cs2)n1 | inconclusive: 34% |

| Compound | inhibition |
| --- | --- |
| Cc1nn2c(NCCN3CCOCC3)c3c(nc2c1-c1ccccc1)CCCC3 | inconclusive: 49.4% |
| C/C=C\C=C\C(=O)N1CC2(CC(c3cccc(NC(=O)CC)c3)=NO2)C[C@H]1C(N)=O (stereo partly drawn) | inconclusive: 40.2% |
| CCOC(=O)c1ccc(CNC(=O)C2CCCCC2C(=O)OCC(F)(F)F)o1 (stereo not drawn) | inconclusive: 48.6% |
| COc1ccc(CNCc2cc(C)c(OC)cc2C)c(OC)c1 | inconclusive: 33.5% |
| Cn1c(Cn2c(=O)sc3ccccc32)nnc1SCC(=O)Nc1cccc(F)c1 | inconclusive: 60.6% |
| COc1ccc2nc(NC(=O)CSc3nnc(C)n3N)sc2c1 | inconclusive: 57.2% |
| COc1cccc(NC(=O)CN(C)C(=O)CCCc2nc3ccccc3c(=O)[nH]2)c1 | inactive: 4.69% |
| CCOC(=O)Cc1c(C)nc(-c2ccccc2)[nH]c1=O | inconclusive: 45% |
| COc1ccc(/C=C2\C(=O)NCC(=O)N2Cc2ccccc2)cc1 | inactive: -2.05% |
| O=C(c1cc(-c2ccc3c(c2)OCO3)on1)N1CCN(c2ccccc2)CC1 | inconclusive: 51.8% |
| Cc1cccc(NC(=O)c2sc3nc4c(c(-c5cccs5)c3c2N)CN(C)CC4)c1 | inconclusive: 34.6% |
| Cc1ccc(C(=O)NCC(=O)NCC(=O)OCC(=O)c2cccs2)cc1 | inconclusive: 49.1% |
| COc1ccccc1/C=C/C(=O)Nc1ccc2c(c1)OCCO2 | inconclusive: 37.4% |
| COc1cc(C(=O)NCCNC(=O)C2CCCNC2=O)cc(OC)c1OC (stereo not drawn) | inconclusive: 54.7% |
| O=S1(=O)CC(O)C(NCc2ccco2)C1 (stereo not drawn) | inactive: 11.1% |
| CCN(CC)S(=O)(=O)c1ccc(NC(=O)c2cc(=O)[nH]c3ccccc23)cc1 | inconclusive: 34.5% |
| Cc1ccc(/C=C2/NC(=O)N(Cc3ccccc3)C2=O)o1 | inconclusive: 52.8% |
| O=C(NCCO)c1cccc(Cl)c1 | inconclusive: 35% |
| S=C(Nc1ccc2snnc2c1)N1CCN(c2ccccn2)CC1 | inconclusive: 61% |
| COC(=O)CNC(=O)Cn1cnc2sc(C)c(S(=O)(=O)N3CCC(C)CC3)c2c1=O | inconclusive: 43.5% |
| Cc1ccc(C)c(-n2c(Cc3cc(=O)[nH]c(=O)[nH]3)nnc2SC(C)C)c1 | inactive: 71.3% |
| O=C(O)CSCc1nc2ccccc2[nH]1 | inconclusive: 35% |

| Compound | inhibition |
| --- | --- |
| NCCc1ccc(O)c(O)c1 | inconclusive: 57.8% |
| CCOC(=O)c1cc2ccccc2nc1C | inconclusive: 36.1% |
| O=C(N/N=C/c1cccc2cccnc12)c1ccccc1O | inconclusive: 45.5% |
| C/C(=N\NC(=S)NCc1ccccc1)c1ccc(C)o1 | inconclusive: 47.2% |
| Nc1c(C(=O)CSc2nnc(-c3ccccc3F)o2)c(=O)[nH]c(=O)n1C1CC1 | inactive: -9.99% |
| CN(C)/C=C1/Sc2ccccc2C1=O | inactive: -7.14% |
| O=C(O)c1ccc(N/N=C/c2ccc(OC(=O)c3cccc(Cl)c3)cc2)cc1 | inconclusive: 46.6% |
| Cc1ccc(S(=O)(=O)N2C[C@H]3[C@H]4C(=O)N(c5ccccc5)C(=O)[C@H]4C[C@H](OC(=O)NC4CCCC4)[C@@]3(O)C2)cc1 | inactive: -0.48% |
| O=C(C1=C[C@@H]2[C@H]3C(=O)N(c4ccc(Cl)cc4)C(=O)[C@H]3[C@@H](C(=O)c3ccc(Cl)cc3)N2C=C1)c1ccccc1 | inconclusive: 37.1% |
| CCOC(=O)N1CCN(C(=O)CSc2nnc(CNC(=O)c3ccccc3F)o2)CC1 | inconclusive: 38.5% |
| Cc1c(NC(=O)c2cc(-c3ccc(O)cc3)on2)c(=O)n(-c2ccccc2)n1C | inconclusive: 59.9% |
| Cc1ccc(NS(=O)(=O)c2cc(C(=O)O)ccc2Cl)c(C)c1 | inconclusive: 41.4% |
| CCCC(C)C(=O)Nc1ccc(C(N)=O)cc1 (stereo not drawn) | inconclusive: 36.4% |
| CCc1ccc(CNc2ccc(N3CCN(C(C)=O)CC3)cc2)cc1 | inconclusive: 41.9% |
| CCC(=O)Oc1ccc(C/C(=N\O)c2ccc(O)cc2O)o1 | inconclusive: 47.9% |
| Cc1ccncc1C(N)=O | inconclusive: 35.6% |
| COCCn1c(COc2ccc(OC)cc2)nc2ccccc21 | inconclusive: 25.5% |
| COc1ccc(-c2nc(SC(CC(=O)NCCO)c3cccs3)n[nH]2)cc1 (stereo not drawn) | inactive: -4.6% |
| COc1ccc(C2c3ccsc3CCN2C(=O)NC(C)(C)C)cc1 (stereo not drawn) | inactive: -4.12% |
| CN(Cc1ccccc1)C(=O)c1nc2ccccn2c1CN1CCC(N2CCOCC2)CC1 | inconclusive: 36.5% |
| Cc1ccc(C(=O)NNC(=O)C2CCN(Cc3ccccc3)CC2)cc1 | inconclusive: 42.9% |
| Nc1ccc2c(c1)OCCOCCOCCOCCOCCO2 | inconclusive: 33.8% |
